Earlier results, collected in patent publication US12576069B2, “Compositions and methods for treating slow-flow vascular malformations” (YALE UNIVERSITY, priority 2019, dated 2026).
At least one compound was matched to its structure with a doubt left.

System: complicated vascular malformations
Settings: cited from earlier work
[1] = oral rapamycin, end of sixth course, 57 patients treated

Compound: CO[C@H]1C[C@@H]2CC[C@@H](C)[C@@](O)(O2)C(=O)C(=O)N2CCCC[C@H]2C(=O)O[C@H]([C@H](C)C[C@@H]2CC[C@@H](O)[C@H](OC)C2)CC(=O)[C@H](C)/C=C(\C)[C@@H](O)[C@@H](OC)C(=O)[C@H](C)C[C@H](C)/C=C/C=C/C=C/1C [rapamycin]
- patients with partial response (oral rapamycin, continuous dosing, end of sixth course, 57 patients treated with 6 or more courses): 47 patients
- patients with progressive disease [1]: 7 patients
- patients with stable disease [1]: 3 patients
- response rate (systemic oral delivery, slow-flow vascular malformations): > 80%
